Laboratory results taken from PubChem BioAssay AID1259354 (Paczesny and Yang Labs, IUPUI and University of Michigan, 2018).
Hit rate of the full screen: of about 78,000 compounds, about 1,800 (2.3%) were called active. The inconclusive results got no clear call from the source; some entries with a clear call stand among them for comparison. Rule as the data show it: active = inhibition above about 30%; inconclusive = mostly about 10% to 28%; inactive = weaker than that.

Chains of the proteins cited; added tags and fusions are not shown. Lines headed by an entry give the natural chain unless they say otherwise; changes in a name come on top.
UniProt Q01638: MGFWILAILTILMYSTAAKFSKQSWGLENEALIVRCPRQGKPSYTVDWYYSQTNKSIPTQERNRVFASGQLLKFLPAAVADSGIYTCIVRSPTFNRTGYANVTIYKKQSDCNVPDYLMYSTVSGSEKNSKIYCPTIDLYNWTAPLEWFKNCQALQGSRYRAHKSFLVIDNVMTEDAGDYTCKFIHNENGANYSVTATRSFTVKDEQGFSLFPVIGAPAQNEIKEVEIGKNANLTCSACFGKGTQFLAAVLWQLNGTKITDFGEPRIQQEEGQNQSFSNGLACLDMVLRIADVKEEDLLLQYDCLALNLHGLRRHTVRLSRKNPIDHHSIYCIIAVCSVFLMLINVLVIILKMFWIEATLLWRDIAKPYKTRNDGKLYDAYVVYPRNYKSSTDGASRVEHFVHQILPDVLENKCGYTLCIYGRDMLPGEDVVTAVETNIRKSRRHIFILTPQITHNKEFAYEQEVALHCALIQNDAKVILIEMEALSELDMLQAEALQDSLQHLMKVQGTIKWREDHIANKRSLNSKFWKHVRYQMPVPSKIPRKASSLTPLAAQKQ

Each compound was assayed against Interleukin-1 receptor-like 1 (Homo sapiens) (UniProt Q01638) (assay: blocks human ST2 binding to IL-33, primary screen, biochemical, AlphaLISA (AID 1259354)). Conditions: AlphaLISA ST2-Fc/biotin-IL-33 interaction, 1 h; at 17 µM, active compounds read high.

| SMILES | inhibition |
| --- | --- |
| Cc1cnc(C)c(-c2cccc(CN3CCOCC3)c2)n1 | inconclusive: 21% |
| CC(=O)Nc1nc2ccccc2n1Cc1ccc(C(C)(C)C)cc1 | inconclusive: 10% |
| CC(C)NC(=O)N[C@H]1CCN2C(=O)c3cc(-c4ccccc4F)ccc3NC(=O)[C@H]12 | inconclusive: 13% |
| COCCNC(=O)c1cc2cc3ccc(OC)cc3nc2s1 | inconclusive: 21% |
| CCOc1ccc(N2CC(NC(=O)CC(C)(C)C)CC2=O)cc1 (configuration not stated) | inconclusive: 13% |
| CSc1nc(-c2ccccc2)cc(-c2cccs2)c1C#N | inactive |
| COC(=O)COc1ccc(Br)cc1 | inactive |
| O=C([C@@H]1C[C@@H](O)CN1)N1CCC(Cc2nncn2-c2ccccc2)CC1 | inactive |
| Cc1ccc2[nH]cc(-c3cc(O)cc(C(=O)O)c3)c2c1 | inconclusive: 17% |
| COc1ccc2[nH]c(C(=O)N3CCN4CCN(C)CC4C3)c(C)c2c1 (configuration not stated) | inconclusive: 18% |
| Cc1nc(C)c(CN2CCC(Cn3cc(C4CC4)nn3)CC2)nc1C | inactive |
| COc1ccc(Cl)cc1NC(=O)CSc1ccccc1 | inactive |
| N#Cc1cc2c(nc1SCC(=O)c1ccc(Br)cc1)CCC2 | inconclusive: 28% |
| C=Cc1ccc(C(=O)N2CC[C@H](O)[C@@H](O)C2)cc1 | inconclusive: 19% |
| O=C(NCc1ccco1)C1CC2CCC1C2 (configuration not stated) | inconclusive: 11% |
| O=c1oc2ccc3ccccc3c2cc1-c1nc(-c2cccs2)cs1 | inconclusive: 13% |
| c1ccc2c(NCCCN3CCOCC3)c3c(nc2c1)CCC3 | inconclusive: 12% |
| COc1ccccc1C1N(c2ccc(Cl)c(Cl)c2)C(=O)C2CCCN21 (configuration not stated) | inactive |
| Cc1oc2ccc(NS(=O)(=O)c3ccccc3)cc2c1C(=O)OC(C)C | inconclusive: 13% |

| SMILES | inhibition |
| --- | --- |
| Cc1ccc(C(=O)C2=C(N)OC3=C(C(=O)CCC3)C2c2ccccc2Cl)cc1 (configuration not stated) | inconclusive: 14% |
| COc1ncc(CN2CCC(CNC(=O)c3ccoc3C)C2)cn1 (configuration not stated) | inconclusive: 12% |
| CN(Cc1ccccc1)Cc1cc(C[C@H]2CNCC[C@H]2CC(=O)N2CCCCC2)no1 | inconclusive: 19% |
| Cc1ccc(-n2nc(C)c(-c3cccc([N+](=O)[O-])c3)c2C)cc1C | inconclusive: 19% |
| O=[N+]([O-])CC(c1c[nH]c2ccccc12)S(=O)(=O)O (configuration not stated) | inconclusive: 12% |
| O=C(CCCNS(=O)(=O)c1cccs1)N1CCN(c2ccccc2)CC1 | inactive |
| CCc1ccc(Cn2c(CNS(=O)(=O)c3ccccc3Cl)nc3cccnc32)cc1 | inactive |
| Cc1cc2n(n1)C(c1ccccc1)CC(c1ccc(Br)cc1)=N2 (configuration not stated) | inconclusive: 12% |
| CCC(C)Oc1ccc(/C=C2\NC(=O)N(Cc3ccc(Cl)cc3)C2=O)cc1 (configuration not stated) | inconclusive: 14% |
| Cc1ccc(C)c(NC(=O)CN2C(=O)C(=O)c3ccccc32)c1 | inconclusive: 23% |
| O=C(c1ccc(Br)cc1)N1CCN(c2ccc([N+](=O)[O-])cc2Cl)CC1 | inconclusive: 14% |
| O=C(CN[C@H]1CCCN(Cc2ccccc2)C1)Nc1cnccn1 | inconclusive: 10% |
| CC(C)c1ccc(N2C(=O)c3ccc(S(=O)(=O)c4ccc(C(=O)O)cc4)cc3C2=O)cc1 | inconclusive: 14% |
| Nc1nnc2c(n1)-c1ccccc1C2=O | inconclusive: 12% |
| O=C(NCc1ccco1)[C@@H]1Cc2nc[nH]c2CN1Cc1cccs1 | inconclusive: 13% |
| CCn1cc(C(=O)NC2CCC(C)CC2)c(=O)c2cc(S(=O)(=O)N3CCOCC3)ccc21 (configuration not stated) | inconclusive: 12% |
| COc1ccc(/C=C/C(=O)O[C@@H]2[C@@H](O)[C@@H](O)[C@H](O[C@H]3[C@@H]4C=CO[C@@H](O[C@@H]5O[C@H](CO)[C@@H](O)[C@H](O)[C@H]5O)[C@@H]4[C@@]4(CO)O[C@@H]34)O[C@H]2C)cc1 | inconclusive: 21% |
| COc1ccccc1CN(C(=O)c1ccc(C)c(N2CCNC2=O)c1)C1CC1 | inconclusive: 14% |
| CN(C)C(=O)c1nc(CN2CCC3(CCCO3)CCC2=O)no1 (configuration not stated) | inconclusive: 14% |

An excerpt of these results, as comma-separated lines:
SMILES,inhibition
COc1ncc(CN2CCC(CNC(=O)c3ccoc3C)C2)cn1 (configuration not stated),inconclusive: 12%
CN(Cc1ccccc1)Cc1cc(C[C@H]2CNCC[C@H]2CC(=O)N2CCCCC2)no1,inconclusive: 19%

(listing goes on)

| SMILES | inhibition |
| --- | --- |
| C(=Nc1cnc2ccccc2c1)c1c2n(c3ccccc13)CCCN2 | active: 30% |
| c1cncc(-c2nnc3n2N=C(c2cccs2)CS3)c1 | inconclusive: 13% |
| O=C1C2C3CCC(C3)C2C(=O)N1c1ccc(Cl)cc1F (configuration not stated) | inconclusive: 17% |
| O=[N+]([O-])c1cccc2ccc(Nc3ccccn3)nc12 | active: 31% |
| Cc1ccccc1Cn1cc(NC(=O)c2cc(-c3ccc(Cl)c(Cl)c3)on2)cn1 | inconclusive: 10% |
| O=c1c(N=Cc2cccc([N+](=O)[O-])c2)cc2[nH]c3ccccc3c2n1-c1ccccc1 | inconclusive: 26% |
| Cc1nc(N2CCC(C(=O)N3CCc4ccccc4C3)CC2)nc2cc(S(C)(=O)=O)ccc12 | inconclusive: 12% |
| Cc1cc(Nc2ccccc2)nc(N2CCN(S(=O)(=O)c3ccc(Br)cc3)CC2)n1 | inconclusive: 27% |
| CC1(C)CC2CC(C)(CN2C(=O)c2cc(-c3ccc4c(c3)OCO4)on2)C1 (configuration not stated) | inactive |
| COc1ccc(OC)c(NC(=O)c2sc3ncnc(N4CCCCC4C)c3c2C)c1 (configuration not stated) | inconclusive: 14% |
| COC(=O)C1=COC(O[C@@H]2O[C@H](CO)[C@@H](O)[C@H](O)[C@H]2O)/C(=C\COC(=O)c2ccc(O)c(OC)c2)C1CC(=O)OCCc1ccc(O)cc1 (some centres not stated) | inactive |
| Ic1ccc(Nc2nc3nonc3n3cnnc23)cc1 | inconclusive: 19% |
| Cc1ccc(N2C(=O)CC(N3CCC(C(N)=O)CC3)C2=O)cc1 (configuration not stated) | inconclusive: 22% |
| CCOc1cccc(C2C(C(=O)OC(C)C)=C(C)NC3=C2C(=O)C(C(=O)OC)C(C)C3)c1 (configuration not stated) | inconclusive: 11% |
| CN(C)c1ccc(-c2nnc([C@H]3CCN(C(=O)c4ccccc4)C3)o2)cc1 | inconclusive: 13% |
| Cc1cccc(NC(c2cccnc2)c2ccc3ccc(C)nc3c2O)n1 (configuration not stated) | inconclusive: 15% |
| CN(Cc1ccccc1)S(=O)(=O)c1ccc(Br)s1 | inactive |
| CCCCOC(=O)C1=C(C)Nc2nnnn2C1c1cc(Br)ccc1F (configuration not stated) | inactive |
| CN(C)CCNC(=O)C[C@@H]1O[C@H](CNC(=O)C2CC2)[C@@H](O)[C@H]1O | inconclusive: 14% |
